Measurements reported in patent US20250120944A1, “ANTIBACTERIAL COMPOSITION” (SEOUL NATIONAL UNIVERSITY R&DB FOUNDATION, priority 2021, published 2025).
Some of these results come from one statement about several compounds together.

System: Salmonella typhimurium
Assay: colony formation measurement in Salmonella typhimurium-infected Raw264.7 macrophages
Type: cell-based
Conditions: Raw264.7, MOI 10 for 30 minutes, 2-10 uM compound for 5 hours; for number of colonies produced by Salmonella typhimurium propagated in the Raw264.7 cell line: compared to the control group

| Compound | number of colonies produced by Salmonella typhimurium propagated in the Raw264.7 cell line, level relative to control group | number of colonies produced by Salmonella typhimurium propagated in the Raw264.7 cell line |
| --- | --- | --- |
| O=C(N1CCCC1)C1(c2cccc(CNCCO)c2)CC1 [Example 1, (1-(3-(((2-hydroxyethyl)amino)methyl)phenyl)cyclopropyl)(pyrrolidin-1-yl)methanone] | ≤ 50 % of the control group | decreases |
| O=C(N1CCCC1)C1(c2ccc(CNCCO)cc2)CC1 [Example 2, (1-(4-(((2-hydroxyethyl)amino)methyl)phenyl)cyclopropyl)(pyrrolidin-1-yl)methanone] | – | decreases |
| CC(CNCCO)COc1ccc(OCc2ccc(F)cc2)c(OCc2ccc(F)cc2)c1 (centres unmarked) [Example 3, 2-((3-(3,4-bis((4-fluorobenzyl)oxy)phenoxy)-2-methylpropyl)amino)ethan-1-ol] | ≤ 50 % of the control group | decreases |
| OCCNC[C@H](O)COc1ccc(OCc2ccc(F)cc2)c(OCc2ccc(F)cc2)c1 [Example 4, (S)-1-(3,4-bis((4-fluorobenzyl)oxy)phenoxy)-3-((2-hydroxyethyl)amino)propan-2-ol] | – | decreases |
| OCCNC[C@@H](O)COc1ccc(OCc2ccc(F)cc2)cc1 [Example 5, (R)-1-(4-((4-fluorobenzyl)oxy)phenoxy)-3-((2-hydroxyethyl)amino)propan-2-ol] | ≤ 50 % of the control group | decreases |
| O=C(NCCO)c1ccc(OCc2ccccc2)c(OCc2ccccc2)c1 [Example 7, 3,4-bis(benzyloxy)-N-(2-hydroxyethyl)benzamide] | ≤ 50 % of the control group | decreases |
| CN(C[C@H](O)CNCCO)c1ccc(OCc2ccc(F)cc2)cc1 [Example 8, (R)-1-((4-((4-fluorobenzyl)oxy)phenyl)(methyl)amino)-3-((2-hydroxyethyl)amino)propan-2-ol] | – | decreases |
| OCCNC[C@H](O)COc1cccc(OCc2ccc(F)cc2)c1 [Example 9, (S)-1-(3-((4-fluorobenzyl)oxy)phenoxy)-3-((2-hydroxyethyl)amino)propan-2-ol] | – | decreases |
| OCCNC[C@@H](O)COc1cc(Cl)cc(OCc2ccc(F)cc2)c1 [Example 10, (R)-1-(3-chloro-5-((4-fluorobenzyl)oxy)phenoxy)-3-((2-hydroxyethyl)amino)propan-2-ol] | – | decreases |
| OCCNCCCOc1ccc(OCc2ccc(F)cc2)c(OCc2ccc(F)cc2)c1 [Example 11, 2-((3-(3,4-bis((4-fluorobenzyl)oxy)phenoxy)propyl)amino)ethan-1-ol] | – | decreases |
